Target: Anthrax Lethal Factor (LF) (Bacillus anthracis, UniProt P15917)
Experiment: biochemical
Format: binding

The chains behind the UniProt entries cited, without tags or fusion partners. Residues count along the entry.
UniProt P15917, 34-809 limits assumed: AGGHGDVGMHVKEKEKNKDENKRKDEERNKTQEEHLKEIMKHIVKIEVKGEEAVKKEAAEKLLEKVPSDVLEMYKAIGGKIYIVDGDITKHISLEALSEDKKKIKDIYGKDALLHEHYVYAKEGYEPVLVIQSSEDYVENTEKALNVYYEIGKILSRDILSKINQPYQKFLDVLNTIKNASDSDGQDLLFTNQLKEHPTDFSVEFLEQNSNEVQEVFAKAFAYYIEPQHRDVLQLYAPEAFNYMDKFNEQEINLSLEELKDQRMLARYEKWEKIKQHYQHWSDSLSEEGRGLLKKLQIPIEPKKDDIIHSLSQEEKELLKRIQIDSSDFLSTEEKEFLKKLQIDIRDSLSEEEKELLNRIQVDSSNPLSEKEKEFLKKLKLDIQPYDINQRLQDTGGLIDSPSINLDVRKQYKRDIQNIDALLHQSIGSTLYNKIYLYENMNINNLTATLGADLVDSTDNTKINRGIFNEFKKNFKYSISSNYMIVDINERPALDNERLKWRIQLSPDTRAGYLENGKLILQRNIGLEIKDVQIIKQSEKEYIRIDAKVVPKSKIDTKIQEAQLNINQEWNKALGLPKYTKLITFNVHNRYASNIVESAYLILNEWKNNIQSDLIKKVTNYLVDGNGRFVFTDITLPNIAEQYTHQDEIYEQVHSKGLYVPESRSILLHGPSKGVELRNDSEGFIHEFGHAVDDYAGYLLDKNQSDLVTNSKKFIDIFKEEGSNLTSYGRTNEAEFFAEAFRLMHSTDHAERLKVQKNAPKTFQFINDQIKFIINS

COc1ccc2cc([C@H](C)C(=O)O)ccc2c1 [Naproxen, (S)-(+)-6-Methoxy-α-methyl-2-naphthaleneacetic acid] showed a Kd of 10.8 µM.
